From paper doi:10.1101/2021.05.20.444955
Results are given in words; binding and its absence hold for the method and conditions named. For some of these results: Binding seen in cells or lysates may run through a third protein. Some results given as binding are weak or reduced against the parent protein; the word gives no strength. Where a sequence is shown, tags or fusion partners need not be part of it.

T1: SPD-5(272–732), yeast two-hybrid fusion (C. elegans) (UniProt P91349)
T1 sequence: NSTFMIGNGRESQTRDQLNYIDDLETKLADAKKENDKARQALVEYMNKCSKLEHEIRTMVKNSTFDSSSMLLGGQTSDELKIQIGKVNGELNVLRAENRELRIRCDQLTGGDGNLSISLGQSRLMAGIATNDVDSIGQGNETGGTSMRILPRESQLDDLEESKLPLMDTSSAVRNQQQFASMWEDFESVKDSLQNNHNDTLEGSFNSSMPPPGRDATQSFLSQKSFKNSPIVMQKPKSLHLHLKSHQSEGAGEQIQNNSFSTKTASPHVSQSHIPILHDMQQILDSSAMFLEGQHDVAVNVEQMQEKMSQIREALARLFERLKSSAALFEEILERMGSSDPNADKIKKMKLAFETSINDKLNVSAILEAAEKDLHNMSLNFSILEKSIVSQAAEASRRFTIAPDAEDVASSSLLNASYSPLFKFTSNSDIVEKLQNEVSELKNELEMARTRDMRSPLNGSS

T2: SPD-5(400–680), yeast two-hybrid fusion (C. elegans) (UniProt P91349)
T2 sequence: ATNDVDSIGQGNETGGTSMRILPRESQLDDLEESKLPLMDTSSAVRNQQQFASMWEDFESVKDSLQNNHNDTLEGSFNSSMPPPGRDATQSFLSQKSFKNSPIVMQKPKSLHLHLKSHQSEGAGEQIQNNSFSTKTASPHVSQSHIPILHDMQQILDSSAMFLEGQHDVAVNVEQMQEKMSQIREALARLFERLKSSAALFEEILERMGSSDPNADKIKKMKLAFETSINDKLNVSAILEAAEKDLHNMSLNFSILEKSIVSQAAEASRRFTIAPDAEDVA

T3: SPD-5(272–680), yeast two-hybrid fusion (C. elegans) (UniProt P91349)
T3 sequence: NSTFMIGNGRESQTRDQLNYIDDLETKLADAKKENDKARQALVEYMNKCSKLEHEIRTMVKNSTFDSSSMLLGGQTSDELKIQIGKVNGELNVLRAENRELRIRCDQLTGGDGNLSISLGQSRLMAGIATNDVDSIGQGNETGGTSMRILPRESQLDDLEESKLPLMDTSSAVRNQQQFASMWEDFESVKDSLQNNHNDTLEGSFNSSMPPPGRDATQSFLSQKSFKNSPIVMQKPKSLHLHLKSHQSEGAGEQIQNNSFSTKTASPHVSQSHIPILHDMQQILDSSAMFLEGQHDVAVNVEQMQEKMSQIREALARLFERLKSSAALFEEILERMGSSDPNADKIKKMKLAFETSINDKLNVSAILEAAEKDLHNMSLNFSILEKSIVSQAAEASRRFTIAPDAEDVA

T4: SPD-5(523–732), yeast two-hybrid fusion (C. elegans) (UniProt P91349)
T4 sequence: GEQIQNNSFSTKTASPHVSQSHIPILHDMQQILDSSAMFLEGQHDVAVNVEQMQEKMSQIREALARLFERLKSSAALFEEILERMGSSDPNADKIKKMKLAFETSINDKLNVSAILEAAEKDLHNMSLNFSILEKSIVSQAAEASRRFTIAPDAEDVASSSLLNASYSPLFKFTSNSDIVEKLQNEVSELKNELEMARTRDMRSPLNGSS

T5: GST-tagged SPD-5(272–732_4A), without PLK-1 pretreatment (C. elegans) (UniProt P91349)
T5 sequence: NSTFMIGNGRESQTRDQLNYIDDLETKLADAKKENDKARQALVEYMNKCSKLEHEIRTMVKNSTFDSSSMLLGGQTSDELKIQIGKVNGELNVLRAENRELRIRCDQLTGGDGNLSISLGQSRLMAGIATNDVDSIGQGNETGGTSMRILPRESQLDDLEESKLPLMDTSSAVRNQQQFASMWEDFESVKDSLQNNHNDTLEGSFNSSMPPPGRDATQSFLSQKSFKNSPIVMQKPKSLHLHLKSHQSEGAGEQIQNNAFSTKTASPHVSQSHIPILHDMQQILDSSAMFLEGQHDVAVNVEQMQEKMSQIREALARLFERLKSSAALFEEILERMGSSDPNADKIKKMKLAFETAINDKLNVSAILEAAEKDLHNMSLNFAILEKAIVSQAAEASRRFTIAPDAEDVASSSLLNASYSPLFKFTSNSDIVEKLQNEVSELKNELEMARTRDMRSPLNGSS

B1: SPD-5(C2), aa 1061–1198, yeast two-hybrid fusion (domain or fragment, UniProt P91349 1061-1198)
chain: PTRQLLHESTMAVDAIVQKLKKTHNMSGMGPELKETIGNVINESRVLRDFLHQKLILFKGIDMSNWKNETVDQLITDLGQLHQDNLMLEEQIKKYKKELKLTKSAIPTLGVEFQDRIKTEIGKIATDMGGAVKEIRKK
B2: SPD-5(C1), aa 927–1198, yeast two-hybrid fusion (domain or fragment, UniProt P91349 927-1198)
chain: MTERKKEIELAKYREDFENAAIVGLERISKEISELTKKTLKAKIIPSNISSIQLVCDELCRRLSREREQQHEYAKVMRDVNEKIEKLQLEKDALEHELKMMSSNNENVPPVGTSVSGMPTKTSNQKCAQPHYTSPTRQLLHESTMAVDAIVQKLKKTHNMSGMGPELKETIGNVINESRVLRDFLHQKLILFKGIDMSNWKNETVDQLITDLGQLHQDNLMLEEQIKKYKKELKLTKSAIPTLGVEFQDRIKTEIGKIATDMGGAVKEIRKK
B3: GFP::SPD-5(C2), from C. elegans egg lysate (domain or fragment, UniProt P91349 1061-1198)
chain: PTRQLLHESTMAVDAIVQKLKKTHNMSGMGPELKETIGNVINESRVLRDFLHQKLILFKGIDMSNWKNETVDQLITDLGQLHQDNLMLEEQIKKYKKELKLTKSAIPTLGVEFQDRIKTEIGKIATDMGGAVKEIRKK
B4: endogenous SPD-5 (protein, UniProt P91349 1-1198)
chain: MEDNSVLNEDSNLEHVEGQPRRSMSQPVLNVEGDKRTSSTSATQQQVLSGAFSSADVRSIPIIQTWEENKALKTKITILRGELQMYQRRYSEAKEASQKRVKEVMDDYVDLKLGQENVQEKMEQYKLMEEDLLAMQSRIETSEDNFARQMKEFEAQKHAMEERIKELELSATDANNTTVGSFRGTLDDILKKNDPDFTLTSGYEERKINDLEAKLLSEIDKVAELEDHIQQLRQELDDQSARLADSENVRAQLEAATGQGILGAAGNAMVPNSTFMIGNGRESQTRDQLNYIDDLETKLADAKKENDKARQALVEYMNKCSKLEHEIRTMVKNSTFDSSSMLLGGQTSDELKIQIGKVNGELNVLRAENRELRIRCDQLTGGDGNLSISLGQSRLMAGIATNDVDSIGQGNETGGTSMRILPRESQLDDLEESKLPLMDTSSAVRNQQQFASMWEDFESVKDSLQNNHNDTLEGSFNSSMPPPGRDATQSFLSQKSFKNSPIVMQKPKSLHLHLKSHQSEGAGEQIQNNSFSTKTASPHVSQSHIPILHDMQQILDSSAMFLEGQHDVAVNVEQMQEKMSQIREALARLFERLKSSAALFEEILERMGSSDPNADKIKKMKLAFETSINDKLNVSAILEAAEKDLHNMSLNFSILEKSIVSQAAEASRRFTIAPDAEDVASSSLLNASYSPLFKFTSNSDIVEKLQNEVSELKNELEMARTRDMRSPLNGSSGRLSDVQINTNRMFEDLEVSEATLQKAKEENSTLKSQFAELEANLHQVNSKLGEVRCELNEALARVDGEQETRVKAENALEEARQLISSLKHEENELKKTITDMGMRLNEAKKSDEFLKSELSTALEEEKKSQNLADELSEELNGWRMRTKEAENKVEHASSEKSEMLERIVHLETEMEKLSTSEIAADYCSTKMTERKKEIELAKYREDFENAAIVGLERISKEISELTKKTLKAKIIPSNISSIQLVCDELCRRLSREREQQHEYAKVMRDVNEKIEKLQLEKDALEHELKMMSSNNENVPPVGTSVSGMPTKTSNQKCAQPHYTSPTRQLLHESTMAVDAIVQKLKKTHNMSGMGPELKETIGNVINESRVLRDFLHQKLILFKGIDMSNWKNETVDQLITDLGQLHQDNLMLEEQIKKYKKELKLTKSAIPTLGVEFQDRIKTEIGKIATDMGGAVKEIRKK

How the values were obtained:
[1] = target: T1, SPD-5(272–732), yeast two-hybrid fusion (C. elegans); experiment: two-hybrid
[2] = target: T2, SPD-5(400–680), yeast two-hybrid fusion (C. elegans); experiment: two-hybrid
[3] = target: T3, SPD-5(272–680), yeast two-hybrid fusion (C. elegans); experiment: two-hybrid
[4] = target: T4, SPD-5(523–732), yeast two-hybrid fusion (C. elegans); experiment: two-hybrid
[5] = target: T5, GST-tagged SPD-5(272–732_4A), without PLK-1 pretreatment (C. elegans); experiment: pull-down

| Binder | binding [1] | binding [2] | binding [3] | binding [4] | binding [5] |
| --- | --- | --- | --- | --- | --- |
| B1 | binds | no binding | no binding | no binding |  |
| B2 | binds |  |  |  |  |
| B3 |  |  |  |  | binds weakly |
| B4 |  |  |  |  | binds weakly |
